Test results from PubChem BioAssay AID1347075 (National Center for Advancing Translational Sciences (NCATS), 2019).
The whole screen tested about 400,000 compounds, of which about 5,500 (1.4%) were called active. The shares of active, inactive and inconclusive entries below differ from those in the screen. Calls come from the whole dose curve; as a rule, active = well fitted cell-killing curve with a large enough effect; inconclusive = small, poorly fitted or top-dose-only effect, or effect the other way; inactive = flat fitted curve, though single readings scatter. Potencies of inconclusive entries are doubtful fits and often do not repeat. More than one record can exist for a structure, and the calls need not agree.

Experiment: qHTS assay for MDR1-selective chemotherapeutics: Primary screen using the parental adenocarcinoma cell KB-3-1; note: nearly all actives have a fitted effect of over 60% in size
Conditions: KB-3-1 viability, CellTiter-Glo ATP luminescence, 72 h; activity change, negative = cytotoxic: at 46.1 µM (top of the series)
Procedure, shortened: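 Luminescent ATP read-out (CellTiter-Glo) measures survival of drug-naive KB-3-1 cells after 72 h compound exposure at 37 °C. Titration series was screened from lowest to highest concentration, with DMSO vehicle plates as background controls.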
% is set by controls: 0 for no effect and ±100 for the full control effect; potency is the fitted concentration of half-maximal effect.

SMILES | Potency | activity change, negative = cytotoxic
Cn1c(=O)c2c(nc(N3CCCCCC3)n2Cc2cccc3ccccc23)n(C)c1=O | active: 18.4 µM | –
COc1ccc(-c2cc(NC=O)c3ncc(-c4ccc(OC)c(OC)c4)n3c2)c(OC)c1 | active: 0.651 µM | –
CCN1/C(=C/C=C/c2oc3ccc(-c4ccccc4)cc3[n+]2CC)Oc2ccc(-c3ccccc3)cc21 | active: 9.2 µM | –
COC(=O)c1c(NC(=O)/C=C/C(=O)O)sc(C)c1-c1ccc(C(C)C)cc1 | active: 20.6 µM | –
COc1cccc(/C=N/NC(=O)c2c(C)nc3ccc(Br)cn23)c1O | inconclusive: 10.3 µM [cytotoxic, partial curve, poor fit] | –
O=C(COc1ccccc1Cl)c1ccc2c(c1)CCCC2 | inconclusive: 23.1 µM [cytotoxic, single point] | –
CCCn1c(N)c(C(=O)CSc2nnc(-c3ccco3)n2Cc2ccccc2)c(=O)[nH]c1=O | inconclusive: 18.4 µM [cytotoxic, single point] | –
Cc1ccc(C(=O)N2CCCCC2)cc1NC1=C(Cl)C(=O)N(Cc2ccccc2)C1=O | inconclusive: 29.1 µM [cytotoxic, single point] | –
CC(C)(C)c1ccc(/C=C/C(=O)NC2=NCCS2)cc1 | inconclusive: 20.6 µM [cytotoxic, single point] | –
CC(=O)Nc1cccc(NC(=O)C(=O)NCC(c2ccco2)N2CCc3ccccc32)c1 (stereo not given) | inactive | –
COc1cc(C(=O)NCCC(=O)NC(C)CCc2ccccc2)cc(OC)c1OC (stereo not given) | inactive | –
COc1ccc(CN(C)C(=O)Cn2cnc3c(SC)nc(N)nc32)cc1OC | inconclusive: 16.4 µM [cytotoxic, single point] | –
Oc1cccc(/C=N/NC(=S)Nc2cccnc2)c1O | active: 10.3 µM | –
CCOC(=O)C1=C(C)NC(C)=C(C(=O)OCC)C1C(=O)OCC(=O)NC | inactive | –
CC(C)C[C@H]1CN([C@@H](CC(C)C)CN2CCCC2CN2C(=S)NC[C@@H]2Cc2ccc(O)cc2)C(=S)N1CC1CCCCC1 (stereo not given in full) | inconclusive: 29.1 µM [cytotoxic, single point] | –
O=C(NCc1ccccc1Cl)C1CCN(S(=O)(=O)N2CCCCC2)CC1 | inactive | –
CCCCOC(=O)n1c(=O)oc2ccc(S(=O)(=O)N3CCCCC3)cc21 | inconclusive: 20.6 µM [cytotoxic, partial curve, poor fit] | –
Cc1c(CNC2CCCCCC2)c(C(=O)O)c(C)n1Cc1cccc(Cl)c1 | – | inconclusive: -15.4%
COc1cccc(CN(C(=O)Cc2c[nH]c3ccccc23)C(C(=O)NC2CCCCC2)c2ccc(C)o2)c1 (stereo not given) | inconclusive: 25.9 µM [cytotoxic, single point] | –
COc1ccccc1CN1C(=O)[C@@H]2Cc3c([nH]c4ccccc34)C(C)(C)N2C1=O | inconclusive: 29.1 µM [cytotoxic, single point] | –
Cc1cc(Cl)c(OCCCNCc2ccccc2)c(Br)c1 | inconclusive: 29.1 µM [cytotoxic, single point] | –
CCc1ccc(C(=O)Cn2ccsc2=N)cc1 | inconclusive: 23.1 µM [cytotoxic, single point] | –
O=C(COc1cc(F)ccc1[N+](=O)[O-])Nc1ccc2c(c1)OCO2 | inactive | –
Cc1ccc(NC(=O)c2ccc(OCc3c(C)noc3C)cc2)cc1C | inconclusive: 23.1 µM [cytotoxic, single point] | –
S=C(c1cn(CCOc2cccc3ccccc23)c2ccccc12)N1CCCC1 | active: 18.4 µM | –

SMILES | Potency | activity change, negative = cytotoxic
CN(CC(=O)Nc1cccc(S(=O)(=O)N(C)c2ccccc2)c1)Cc1cccs1 | inactive | –
COC(=O)Nc1nc2ccc(SC(C)C)cc2[nH]1 | active: 1.46 µM | –
Fc1cccc(CN2CCc3nc(Nc4ccc5c(c4)OCCO5)ncc3C2)c1F | inactive | –
CON(C)S(=O)(=O)c1cccc(C(=O)Nc2cccc(S(=O)(=O)NC3=NCCCCC3)c2)c1 | inconclusive: 29.1 µM [cytotoxic, single point] | –
CCNc1nc2c(c(=O)n(C)c(=O)n2C)n1Cc1ccc(F)cc1 | inconclusive: 2.06 µM [cytotoxic, full curve] | –
CCOc1ccc(N/C(N)=N/c2nc(CSc3nnc(C)s3)cc(=O)[nH]2)cc1 | active: 0.731 µM | –
CC(=O)Oc1c(I)cc(I)cc1C(=O)Nc1ccc(Cl)cc1 | active: 23.1 µM | –
CSc1ncnc2c1ccn2CC(=O)Nc1ccc(C)c(C)c1 | inactive | –
Cc1ccc(-c2csc3nc(-c4ccncc4)[nH]c(=O)c23)cc1 | inconclusive: 4.61 µM [cytotoxic, full curve] | –
COc1ccc(NS(=O)(=O)c2cc(NC(=O)c3cnc(C)cn3)ccc2N2CCCCC2)cc1 | inactive | –
CC1CCN(c2c(NCC3CCC(C(=O)N4CCc5ccccc5C4)CC3)c(=O)c2=O)CC1 (stereo not given) | inconclusive: 20.6 µM [cytotoxic, single point] | –
Cc1nnc(NC(=O)c2nc(SC(C)C)ncc2Cl)s1 | inactive | –
COc1cc(CN2CCN(C(c3ccccc3)c3ccccc3)CC2)cc(OC)c1OC | inactive | –
O=[N+]([O-])c1ccc(C[n+]2ccc(Cc3ccccc3)cc2)cc1 | inconclusive: 20.6 µM [cytotoxic, single point] | –
CCSC(=O)N1c2ccc(OC)cc2C=CC1C#N (stereo not given) | active: 0.651 µM | –
Cc1[nH]c(=O)c(C(=O)/C=C/c2ccccc2F)c2c1CCCC2 | active: 6.51 µM | –
N#Cc1cccnc1N1CCN(C(C(=O)NC2CCCC2)c2ccco2)CC1 (stereo not given) | inactive | –
O=C(c1ccc([N+](=O)[O-])cc1)N1CCN(C(=O)c2ccco2)CC1 | inactive | –
CC1(C)CC(NNCCC#N)=CC(=[N+]2CCCC2)C1 | inactive | –
COc1cccc2c1oc1c(SCc3nc4ccccc4[nH]3)nc(C)nc12 | inconclusive: 32.6 µM [cytotoxic, single point] | –
COc1cc(-c2noc(C)c2/C=C/c2ccc(N)cc2)cc(OC)c1OC | active: 0.259 µM | –
CC1(C)Cc2ccccc2-c2nnc(SCC(=O)Nc3nc4ccccc4s3)n21 | inconclusive: 13 µM [rising, partial curve, poor fit] | –
COc1ccc(CCNS(=O)(=O)c2c(C)nc3sc(C)cn3c2=O)cc1OC | inactive | –
COc1ccc(-c2nc3ccccc3o2)cc1NC(=O)c1cccnc1 | inactive | –
COc1ccc(/C=c2\s/c(=C/C(=O)c3ccc(C)cc3)[nH]c2=O)cc1OC | inactive | –

SMILES | Potency | activity change, negative = cytotoxic
CCN1C(=S)N[C@@H](CCc2ccccc2)C(C(=O)OC)=C1C | inactive | –
COCCn1c(-c2ccc(Br)cc2)csc1=Nc1cccnc1 | active: 14.6 µM | –
CCN(CC)CCCNC(=O)c1ccc2c(c1)sc1nc(-c3ccc(C)cc3)cn12 | active: 16.4 µM | –
O=C(CC1C(=O)NCCN1Cc1c(F)cccc1Cl)NCCCn1cccn1 (stereo not given) | inactive | –
CCN(C(=O)CSc1nc2cc(C(=O)O)ccc2c(=O)n1-c1ccccc1F)C1CCS(=O)(=O)C1 (stereo not given) | inactive | –
CNS(=O)(=O)c1cccc(C(=O)OCC(=O)c2cc(C)n(-c3ccc4c(c3)OCO4)c2C)c1 | inconclusive: 32.6 µM [cytotoxic, single point] | –
N#CCC1c2ccccc2CCN1C(=O)Nc1cccc(C(F)(F)F)c1 (stereo not given) | inconclusive: 18.4 µM [cytotoxic, single point] | –
CCN(C)c1ccc(/C=N\n2nnnc2N)cc1 | active: 5.17 µM | –
CN(C)C/C(Cl)=C(\Cl)c1ccccc1 | inconclusive: 23.1 µM [cytotoxic, single point] | –
C=C1CN(CC(=O)OC)S(=O)(=O)c2ccccc21 | inconclusive: 29.1 µM [rising, single point] | –
CC(=O)C(Cl)C(=O)Nc1ccccc1 (stereo not given) | active: 20.6 µM | –
COC(=O)C(=Cc1ccc(-c2ccsc2C(=O)OC)o1)C(=O)OC | inconclusive: 18.4 µM [cytotoxic, single point] | –
CN(C)/C=C/C(=O)c1ccc(N2CCN(c3ncc(C(F)(F)F)cc3Cl)CC2)cc1 | inconclusive: 29.1 µM [cytotoxic, single point] | –
CCN(CC)S(=O)(=O)c1ccc(-n2cnnn2)c(C)c1 | inconclusive: 0.0052 µM [rising, full curve, poor fit] | –
Cc1ccc(CNC(=O)c2ccc3c(c2)c(C)c(C)n3Cc2ccc(Cl)cc2)o1 | inactive | –
COc1cnc(-c2ccccc2)nc1OC | inconclusive: 32.6 µM [cytotoxic, single point] | –
CCOC(=O)[C@]12CCCC=C1N(Cc1ccc(Cl)cc1Cl)C(=O)[C@H](CC(=O)NCC13CC4CC(CC(C4)C1)C3)C2 | inconclusive: 16.4 µM [cytotoxic, single point] | –
Cc1ccc(C(=O)Nc2c(C(=O)Nc3ccc(C)c(C)c3)sc3nc(C)cc(C)c23)cc1 | inconclusive: 29.1 µM [cytotoxic, single point] | –
C=CCN(CC=C)Cc1cc(=O)oc2cc(C)cc(C)c12 | inactive | –
COc1ccc(NC(=O)C(=O)NCC2CCCN2S(=O)(=O)c2cc(C)ccc2C)cc1 (stereo not given) | active: 5.8 µM | –
Cc1ccc(-n2ncc3c(NCc4cccnc4)ncnc32)c(C)c1 | inconclusive: 7.31 µM [cytotoxic, partial curve] | –
O=C(c1ccc(CSc2nc3ccncc3[nH]2)cc1)N1CCN(c2cccc(Cl)c2)CC1 | inconclusive: 29.1 µM [cytotoxic, single point] | –
O=C(NC(=S)NNC(=O)c1cc2ccccc2cc1O)c1ccco1 | inconclusive: 5.8 µM [cytotoxic, full curve] | –
FC(F)(F)c1nnc2n1N=C(c1ccccc1)CS2 | inconclusive: 25.9 µM [cytotoxic, partial curve] | –
Cc1ccc(C(=O)N2CCN(c3ccc(NC(=O)COc4ccccc4C)cc3)CC2)cc1 | active: 18.4 µM | –

5 records picked at random from those above:
SMILES | Potency | activity change, negative = cytotoxic
CCOC(=O)[C@]12CCCC=C1N(Cc1ccc(Cl)cc1Cl)C(=O)[C@H](CC(=O)NCC13CC4CC(CC(C4)C1)C3)C2 | inconclusive: 16.4 µM [cytotoxic, single point] | –
CCN(CC)S(=O)(=O)c1ccc(-n2cnnn2)c(C)c1 | inconclusive: 0.0052 µM [rising, full curve, poor fit] | –
CN(C)/C=C/C(=O)c1ccc(N2CCN(c3ncc(C(F)(F)F)cc3Cl)CC2)cc1 | inconclusive: 29.1 µM [cytotoxic, single point] | –
Cc1ccc(CNC(=O)c2ccc3c(c2)c(C)c(C)n3Cc2ccc(Cl)cc2)o1 | inactive | –
CN(C)C/C(Cl)=C(\Cl)c1ccccc1 | inconclusive: 23.1 µM [cytotoxic, single point] | –
